# Experimental data reported in publication PMC10417424.
# Protein sequences, listed by entry. Tags and fused reporters are not part of them.
# UniProt Q96GG9: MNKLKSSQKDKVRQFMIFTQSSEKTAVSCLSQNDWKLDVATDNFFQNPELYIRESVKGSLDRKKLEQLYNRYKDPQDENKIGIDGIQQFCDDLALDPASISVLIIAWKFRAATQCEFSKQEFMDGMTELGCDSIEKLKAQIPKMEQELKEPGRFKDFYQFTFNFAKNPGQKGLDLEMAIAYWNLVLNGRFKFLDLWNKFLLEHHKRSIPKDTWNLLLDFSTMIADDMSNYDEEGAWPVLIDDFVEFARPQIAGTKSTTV
# UniProt Q13620: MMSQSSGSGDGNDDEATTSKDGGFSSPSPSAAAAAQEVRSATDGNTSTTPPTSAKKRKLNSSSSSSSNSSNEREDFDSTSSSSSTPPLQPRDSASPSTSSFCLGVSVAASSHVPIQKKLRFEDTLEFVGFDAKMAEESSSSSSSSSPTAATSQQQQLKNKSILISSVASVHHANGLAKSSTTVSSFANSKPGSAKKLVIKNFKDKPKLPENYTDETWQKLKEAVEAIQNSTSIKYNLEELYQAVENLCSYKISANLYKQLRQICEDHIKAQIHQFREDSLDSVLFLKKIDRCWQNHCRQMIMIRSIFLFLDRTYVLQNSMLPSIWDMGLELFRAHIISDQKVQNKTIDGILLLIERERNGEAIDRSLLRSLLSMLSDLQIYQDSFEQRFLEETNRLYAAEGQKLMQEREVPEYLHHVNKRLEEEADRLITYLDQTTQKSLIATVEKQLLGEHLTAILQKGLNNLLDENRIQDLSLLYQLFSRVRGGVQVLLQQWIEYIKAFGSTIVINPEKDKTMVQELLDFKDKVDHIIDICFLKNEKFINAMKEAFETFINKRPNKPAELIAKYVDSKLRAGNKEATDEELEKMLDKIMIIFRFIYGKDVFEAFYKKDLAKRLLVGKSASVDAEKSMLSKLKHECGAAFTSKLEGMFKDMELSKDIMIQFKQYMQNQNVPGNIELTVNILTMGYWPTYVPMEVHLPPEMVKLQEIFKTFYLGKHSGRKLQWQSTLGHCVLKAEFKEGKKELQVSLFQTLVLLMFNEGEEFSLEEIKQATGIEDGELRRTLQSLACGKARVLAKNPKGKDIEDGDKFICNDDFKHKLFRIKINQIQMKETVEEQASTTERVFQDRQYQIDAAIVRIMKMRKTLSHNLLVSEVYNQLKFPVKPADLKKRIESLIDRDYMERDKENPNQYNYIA
# UniProt P22314: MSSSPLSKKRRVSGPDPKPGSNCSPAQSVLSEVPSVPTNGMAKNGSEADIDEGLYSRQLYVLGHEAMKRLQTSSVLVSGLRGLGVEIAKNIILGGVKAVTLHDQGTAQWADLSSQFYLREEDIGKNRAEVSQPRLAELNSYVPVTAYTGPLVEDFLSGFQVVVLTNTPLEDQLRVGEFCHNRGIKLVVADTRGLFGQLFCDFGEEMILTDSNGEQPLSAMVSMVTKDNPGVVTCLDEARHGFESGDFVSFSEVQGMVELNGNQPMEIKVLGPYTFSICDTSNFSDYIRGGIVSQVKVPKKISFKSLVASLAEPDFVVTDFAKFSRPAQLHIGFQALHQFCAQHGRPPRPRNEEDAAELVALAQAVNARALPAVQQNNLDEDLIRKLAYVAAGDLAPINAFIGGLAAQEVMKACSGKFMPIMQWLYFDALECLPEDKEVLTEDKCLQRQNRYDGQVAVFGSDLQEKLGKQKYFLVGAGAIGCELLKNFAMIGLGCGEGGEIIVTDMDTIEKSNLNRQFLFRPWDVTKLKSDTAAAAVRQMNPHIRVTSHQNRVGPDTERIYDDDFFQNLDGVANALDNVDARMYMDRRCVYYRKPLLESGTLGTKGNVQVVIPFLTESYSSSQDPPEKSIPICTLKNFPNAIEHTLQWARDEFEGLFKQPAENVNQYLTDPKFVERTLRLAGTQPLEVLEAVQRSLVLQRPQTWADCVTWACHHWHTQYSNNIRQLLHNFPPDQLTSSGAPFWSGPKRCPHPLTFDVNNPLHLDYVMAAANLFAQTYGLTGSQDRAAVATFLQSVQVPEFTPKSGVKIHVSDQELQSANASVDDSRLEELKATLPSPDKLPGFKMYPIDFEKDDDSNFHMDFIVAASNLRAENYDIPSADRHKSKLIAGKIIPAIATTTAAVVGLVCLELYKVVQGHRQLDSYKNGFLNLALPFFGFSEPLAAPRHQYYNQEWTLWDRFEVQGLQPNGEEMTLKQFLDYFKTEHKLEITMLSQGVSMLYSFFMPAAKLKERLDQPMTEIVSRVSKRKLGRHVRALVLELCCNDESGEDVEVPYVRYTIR
# Biological target: Flag-DCUN1D1 (defective in cullin neddylation 1 domain containing 1) (UniProt Q96GG9)
# Assay: affinity purification with mass spectrometry; HEK 293TT cells transfected in duplicate with pcDNA-Flag-DCUN1D1 (bait) or peGFP-N3 (negative control), lysed 48 h later; EZview red anti-Flag M2 affinity gel; tryptic digestion and LC-MS/MS; hits filtered against the controls and the Crapome database
row,Substance,binding
1,cullin 4B (CUL4B) (from UniProt Q13620 1-913),binds
2,ubiquitin-activating enzyme UBA1 (from UniProt P22314 1-1058),binds

# No constants are given. Whether binding was seen depends on the method and setting. In cells and extracts the contact can be indirect. A yes stands for co-enrichment or nearness to the bait. Other partners may have been found.
